Experimental data published in patent US20030077679A1.
No constants are given. Whether binding was seen depends on the method and setting. In cells and extracts the contact can be indirect. Some results given as binding are weak or reduced against the parent protein; the word gives no strength. Sequences can lack the tags named with a protein.

Target: T1, human EID-1 with an N-terminal V5-HIS6 tag (in p423CDN) (human) (UniProt Q9Y6B2)
T1 sequence: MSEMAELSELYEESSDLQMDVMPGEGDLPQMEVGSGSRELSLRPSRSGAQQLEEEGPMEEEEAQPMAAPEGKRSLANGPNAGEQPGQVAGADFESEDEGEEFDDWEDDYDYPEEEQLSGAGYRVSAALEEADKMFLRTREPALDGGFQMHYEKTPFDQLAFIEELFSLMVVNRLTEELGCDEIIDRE
Experiment: co-immunoprecipitation with anti-V5 antibodies from transfected HEK293 cell lysate, western blot with anti-cmyc

binding: binds
B1: murine DYRK3 with an N-terminal cmyc6 tag (in pCDNA3.1) (enzyme, not shown: small tags and cut ends)
chain: MMIDETKGPPYSDTFSNPSEAPVSRRLNITTEPLTRGHTQHFVNGSEMKVEQLFQEFGNRRSNTLQSDGISNSEKSSPASQGKSSESLSAVKCNLSSRPSKVLPLTPEQALKQYKHHLTAYEKLEIVSYPEIYFVGPNAKKRQGVIGGPNNGGYDDADGAYIHVPRDHLAYRYEVLKIIGKGSFGQVARVYDHKLRQYVALKMVRNEKRFHRQAAEEIRILEHLKKQDKTGSMNVIHMLESFTFRNHVCMAFELLSIDLYELIKKNKFQGFSVQLVRKFAQSILQSLDALHKNKIIHCDLKPENILLKHHGRSATKVIDFGSSCFEYQKLYTYIQSRFYRAPEIILGCRYSTPIDIWSFGCILAELLTGQPLFPGEDEGDQLACMIELLGMPPQKLLEQSKRAKYFINSKGLPRYCSVSTQTDGRVVLLGGRSRRGKKRGPPGSKDWATALKGCGDYLFIEFLKRCLQWDPSARLTPAQALRHPWISKSTPKPLTMDKVPGKRVVNPTNAFQGLGSKLPPVVGIASKLKANLMSETSGSIPLCSVLPKLIS
